# According to EP4644412A1:
# Protein sequences, listed by entry. Tags and fused reporters are not part of them. Residues count along the entry.
# UniProt P06494, residues 23-1257: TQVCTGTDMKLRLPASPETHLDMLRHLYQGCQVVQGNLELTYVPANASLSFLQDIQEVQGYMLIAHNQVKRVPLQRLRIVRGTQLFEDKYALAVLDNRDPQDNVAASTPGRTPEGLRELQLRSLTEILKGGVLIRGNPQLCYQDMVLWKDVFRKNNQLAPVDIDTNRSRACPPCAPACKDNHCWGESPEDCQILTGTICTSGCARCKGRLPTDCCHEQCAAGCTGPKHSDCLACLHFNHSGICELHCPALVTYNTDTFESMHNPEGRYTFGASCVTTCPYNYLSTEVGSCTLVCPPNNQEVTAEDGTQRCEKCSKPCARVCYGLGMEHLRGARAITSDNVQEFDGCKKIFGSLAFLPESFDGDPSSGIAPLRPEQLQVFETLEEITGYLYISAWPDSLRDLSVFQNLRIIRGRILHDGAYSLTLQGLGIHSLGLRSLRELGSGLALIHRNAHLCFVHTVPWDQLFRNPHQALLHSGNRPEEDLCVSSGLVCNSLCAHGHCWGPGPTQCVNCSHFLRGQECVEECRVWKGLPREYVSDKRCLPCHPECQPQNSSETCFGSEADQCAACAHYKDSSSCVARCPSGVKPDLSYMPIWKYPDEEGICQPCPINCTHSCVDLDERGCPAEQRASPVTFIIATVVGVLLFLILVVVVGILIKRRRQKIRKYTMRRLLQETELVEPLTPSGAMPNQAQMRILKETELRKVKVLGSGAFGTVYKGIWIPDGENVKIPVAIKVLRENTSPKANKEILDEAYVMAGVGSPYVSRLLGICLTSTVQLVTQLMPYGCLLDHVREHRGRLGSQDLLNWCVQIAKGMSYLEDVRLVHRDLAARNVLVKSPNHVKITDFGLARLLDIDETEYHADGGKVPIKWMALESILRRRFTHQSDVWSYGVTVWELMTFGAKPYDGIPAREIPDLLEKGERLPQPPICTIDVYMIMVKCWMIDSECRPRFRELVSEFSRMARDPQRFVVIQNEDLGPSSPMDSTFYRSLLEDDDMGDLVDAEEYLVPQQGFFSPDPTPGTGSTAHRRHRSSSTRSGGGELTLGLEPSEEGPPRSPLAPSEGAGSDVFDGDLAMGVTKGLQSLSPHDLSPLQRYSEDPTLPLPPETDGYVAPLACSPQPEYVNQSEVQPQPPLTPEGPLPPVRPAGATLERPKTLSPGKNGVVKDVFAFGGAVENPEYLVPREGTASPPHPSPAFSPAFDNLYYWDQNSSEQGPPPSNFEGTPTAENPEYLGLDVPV
# No constants are given. Whether binding was seen depends on the method and setting. Some entries that bind do so weakly or less than the wild type. Tags and fused reporters may be left off the sequences shown.
# Target: neu antigen (UniProt P06494)
# Assay: flow cytometry on 4T1-neu cells, 1 to 500 ng, anti-human IgG detection
row,binding,Binder
1,binds,"7.16.4 antibody fragment fusion protein (CoreX) (Fc fusion, not shown: small tags and cut ends; a dimerising Fc or GST) DIQMTQSPATLSVTPGDSVSLSCRASQSISKNLHWYQQKSHESPRLLIKFASQSISGIPSRFSGSGSGTDFTLSINSVETEDFGMYFCQQSNNWPLTFGAGTKLELKSSGGGGSGGGGGGSSRSSLEVQLKQSGPGLVKPSQSLSLTCSVTGYSFTSYYYWNWIRQFPGNRLEWMGYISYDGTNYYNPSLKNRISITRDTSKNQFFLNLNSMTTEDTATYYCAREENWDWYFDVWGAGTTVTVSS"
2,binds,"7.16.4 antibody fragment fusion protein (CoreXC) (Fc fusion, not shown: small tags and cut ends; a dimerising Fc or GST) DIQMTQSPATLSVTPGDSVSLSCRASQSISKNLHWYQQKSHESPRLLIKFASQSISGIPSRFSGSGSGTDFTLSINSVETEDFGMYFCQQSNNWPLTFGAGTKLELKSSGGGGSGGGGGGSSRSSLEVQLKQSGPGLVKPSQSLSLTCSVTGYSFTSYYYWNWIRQFPGNRLEWMGYISYDGTNYYNPSLKNRISITRDTSKNQFFLNLNSMTTEDTATYYCAREENWDWYFDVWGAGTTVTVSS"
